{"source": "patent US20100168097A1", "about": "“Non-Nucleoside Reverse Transcriptase Inhibitors” (priority 2005, published 2010)", "note": "Some entries share one result that the patent states for a list of compounds.", "data": [{"system": "acute HIV infection of T-lymphoid cells", "experiment": "Assay for inhibition of HIV replication (spread assay)", "assay_type": "cell-based", "conditions": "inhibition of HIV replication in T-lymphoid cells", "procedure": "An assay for the inhibition of acute HIV infection of T-lymphoid cells (alternatively referred to herein as the “spread assay”) was conducted in accordance with Vacca, J. P. et al., Proc. Natl. Acad. Sci. USA 1994, 91: 4096. […] The compounds of Examples 2-4 and 22 were not tested.", "values": [{"compound": "1-{2-[5-bromo-3-pyrrolidin-1-ylsulfonyl)-1H-indol-2-yl]-1H-imidazol-4-yl}propan-1-ol [Example 20]", "IC95, spread assay": "less than 1 micromolar"}, {"compound": "5-chloro-3-(phenylsulfonyl)-2-(5-propyl-l,2,4-oxadiazol-3-yl)-1H-indole [Example 6]", "IC95, spread assay": "less than 1 micromolar"}, {"compound": "5-chloro-2-[5-(2-chlorophenyl)-l,2,4-oxadiazol-3-yl]-3-(phenylsulfonyl)-1H-indole [Example 5]", "IC95, spread assay": "less than 1 micromolar"}]}, {"system": "T-lymphoid cells", "experiment": "Cytotoxicity by microscopic examination of the cells in the spread assay", "assay_type": "cell-based", "conditions": "microscopic examination of spread assay cultures", "values": [{"compound": "O=[N+]([O-])c1ccc(-c2c[nH]c(-c3[nH]c4ccc(Br)cc4c3S(=O)(=O)N3CCCC3)n2)cc1", "note": "[Example 32, 5-bromo-2-[4-(4-nitrophenyl)-1H-imidazol-2-yl]-3-(pyrrolidin-1-ylsulfonyl)-1H-indole]", "cytotoxicity at the IC95 concentration": "no cytotoxicity"}, {"compound": "CCC(OC)c1cnc(-c2[nH]c3ccc(Br)cc3c2S(=O)(=O)N2CCCC2)[nH]1", "note": "(stereo not shown) [Example 21, 5-bromo-2-[4-(1-methoxypropyl)-1H-imidazol-2-yl]-3-(pyrrolidin-1-ylsulfonyl)-1H-indole]", "cytotoxicity at the IC95 concentration": "no cytotoxicity"}, {"compound": "Cc1cnc(-c2[nH]c3ccc(Cl)cc3c2S(=O)(=O)CC2CCC2)[nH]1", "note": "[Example 34, 5-Chloro-3-[(cyclobutylmethyl)sulfonyl]-2-(5-methyl-1H-imidazol-2-yl)-1H-indole]", "cytotoxicity at the IC95 concentration": "no cytotoxicity"}, {"compound": "O=S(=O)(c1ccccc1)c1c(-c2noc(-c3ccncc3)n2)[nH]c2ccc(Cl)cc12", "note": "[Example 10, 5-chloro-3-(phenylsulfonyl)-2-(5-pyridin-4-yl-1,2,4-oxadiazol-3-yl)-1H-indole]", "cytotoxicity at the IC95 concentration": "no cytotoxicity"}, {"compound": "O=S(=O)(c1ccccc1)c1c(-c2noc([C@@H]3C[C@H]3c3ccccc3)n2)[nH]c2ccc(Cl)cc12", "note": "[Example 8, 5-chloro-2-{5-[(1R,2R)-2-phenylcyclopropyl]-1,2,4-oxadiazol-3-yl}-3-(phenylsulfonyl)-1H-indole]", "cytotoxicity at the IC95 concentration": "no cytotoxicity"}, {"compound": "O=S(=O)(c1c(-c2nc([C@H](O)[C@@H](O)[C@@H](O)CO)c[nH]2)[nH]c2ccc(Br)cc12)N1CCCC1", "note": "[Example 18, (1S,2R,3S)-1-{2-[5-bromo-3-(pyrrolidin-1-ylsulfonyl)-1H-indol-2-yl}-1H-imidazol-4-yl}butane-1,2,3,4-tetrol]", "cytotoxicity at the IC95 concentration": "no cytotoxicity"}, {"compound": "O=S(=O)(c1ccccc1)c1c(-c2noc(-c3ccccc3F)n2)[nH]c2ccc(Cl)cc12", "note": "[Example 7, 5-chloro-2-[5-(2-fluorophenyl)-1,2,4-oxadiazol-3-yl]-3-(phenylsulfonyl)-1H-indole]", "cytotoxicity at the IC95 concentration": "no cytotoxicity"}, {"compound": "N#Cc1ccc(-c2c[nH]c(-c3[nH]c4ccc(Br)cc4c3S(=O)(=O)N3CCCC3)n2)cc1", "note": "[Example 33, 4-{2-[5-bromo-3-(pyrrolidin-1-ylsulfonyl)-1H-indol-2-yl]-1H-imidazol-4-yl}benzonitrile]", "cytotoxicity at the IC95 concentration": "no cytotoxicity"}, {"compound": "Cc1cnc(-c2[nH]c3ccc(Cl)cc3c2S(=O)(=O)C2CCCC2)[nH]1", "note": "[Example 35, 5-chloro-3-[(cyclopentyl)sulfonyl]-2-(5-methyl-1H-imidazol-2-yl)-1H-indole]", "cytotoxicity at the IC95 concentration": "no cytotoxicity"}, {"compound": "COC(=O)c1cc(-c2c[nH]c(-c3[nH]c4ccc(Br)cc4c3S(=O)(=O)N3CCCC3)n2)ccc1O", "note": "[Example 31, methyl 5-{2-[5-bromo-3-(pyrrolidin-1-ylsulfonyl)-1H-indol-2-yl]-1H-imidazol-4-yl}-2-hydroxybenzoate]", "cytotoxicity at the IC95 concentration": "no cytotoxicity"}, {"compound": "1-{2-[5-bromo-3-pyrrolidin-1-ylsulfonyl)-1H-indol-2-yl]-1H-imidazol-4-yl}propan-1-ol [Example 20]", "cytotoxicity at the IC95 concentration": "no cytotoxicity"}, {"compound": "5-chloro-3-(phenylsulfonyl)-2-(5-propyl-l,2,4-oxadiazol-3-yl)-1H-indole [Example 6]", "cytotoxicity at the IC95 concentration": "no cytotoxicity"}, {"compound": "CCC(CC)S(=O)(=O)c1c(-c2ncc(C)[nH]2)[nH]c2ccc(Cl)cc12", "note": "[Example 37, 5-chloro-3-[(pent-3-yl)sulfonyl]-2-(5-methyl-1H-imidazol-2-yl)-1H-indole]", "cytotoxicity at the IC95 concentration": "no cytotoxicity"}, {"compound": "COc1ccc(-c2c[nH]c(-c3[nH]c4ccc(Br)cc4c3S(=O)(=O)N3CCCC3)n2)cc1", "note": "[Example 28, 5-bromo-2-[4-(4-methoxyphenyl)-1H-imidazol-2-yl]-3-(pyrrolidin-1-ylsulfonyl)-1H-indole]", "cytotoxicity at the IC95 concentration": "no cytotoxicity"}, {"compound": "O=S(=O)(c1c(-c2nc(-c3ccc(F)c(F)c3)c[nH]2)[nH]c2ccc(Br)cc12)N1CCCC1", "note": "[Example 26, 5-bromo-2-[4-(3,4-difluorophenyl)-1H-imidazol-2-yl]-3-(pyrrolidin-1-ylsulfonyl)-1H-indole]", "cytotoxicity at the IC95 concentration": "no cytotoxicity"}, {"compound": "5-chloro-2-[5-(2-chlorophenyl)-l,2,4-oxadiazol-3-yl]-3-(phenylsulfonyl)-1H-indole [Example 5]", "cytotoxicity at the IC95 concentration": "no cytotoxicity"}, {"compound": "O=S(=O)(c1c(-c2ncc(-c3ccccc3)[nH]2)[nH]c2ccc(Br)cc12)N1CCCC1", "note": "[Example 23, 5-bromo-2-(4-phenyl-1H-imidazol-2-yl)-3-(pyrrolidin-1-ylsulfonyl)-1H-indole]", "cytotoxicity at the IC95 concentration": "no cytotoxicity"}, {"compound": "COCc1nc(-c2[nH]c3ccc(Cl)cc3c2S(=O)(=O)c2ccccc2)no1", "note": "[Example 1, 5-chloro-2-[5-(methoxymethyl)-1,2,4-oxadiazol-3-yl]-3-(phenylsulfonyl)-1H-indole]", "cytotoxicity at the IC95 concentration": "no cytotoxicity"}, {"compound": "O=S(=O)(c1ccccc1)c1c(-c2noc(COc3ccccc3)n2)[nH]c2ccc(Cl)cc12", "note": "[Example 9, 5-chloro-2-[5-(phenoxymethyl)-1,2,4-oxadiazol-3-yl]-3-(phenylsulfonyl)-1H-indole]", "cytotoxicity at the IC95 concentration": "no cytotoxicity"}, {"compound": "O=S(=O)(c1c(-c2nc(-c3ccc4c(c3)OCO4)c[nH]2)[nH]c2ccc(Br)cc12)N1CCCC1", "note": "[Example 30, 2-[4-(1,3-benzodioxol-5-yl)-1H-imidazol-2-yl]-5-bromo-3-(pyrrolidin-1-ylsulfonyl)-1H-indole]", "cytotoxicity at the IC95 concentration": "no cytotoxicity"}, {"compound": "O=S(=O)(c1ccccc1)c1c(-c2noc(-c3ccc(F)cc3F)n2)[nH]c2ccc(Cl)cc12", "note": "[Example 11, 5-chloro-2-[5-(2,4-difluorophenyl)-1,2,4-oxadiazol-3-yl]-3-(phenylsulfonyl)-1H-indole]", "cytotoxicity at the IC95 concentration": "no cytotoxicity"}, {"compound": "Cc1cnc(-c2[nH]c3ccc(Br)cc3c2S(=O)(=O)N2CCCC2)[nH]1", "note": "[Example 16, 5-Bromo-2-(4-methyl-1H-imidazol-2-yl)-3-(pyrrolidin-1-ylsulfonyl)-1H-indole]", "cytotoxicity at the IC95 concentration": "no cytotoxicity"}, {"compound": "Cc1nc(-c2[nH]c3ccc(Cl)cc3c2S(=O)(=O)c2ccccc2)no1", "note": "[Example 12, 5-chloro-2-(5-methyl-1,2,4-oxadiazol-3-yl)-3-(phenylsulfonyl)-1H-indole]", "cytotoxicity at the IC95 concentration": "no cytotoxicity"}, {"compound": "O=S(=O)(c1c(-c2nc(-c3ccc(N4CCOCC4)cc3)c[nH]2)[nH]c2ccc(Br)cc12)N1CCCC1", "note": "[Example 19, 5-bromo-2-[4-(4-morpholin-4-ylphenyl)-1H-imidazol-2-yl]-3-(pyrrolidin-1-ylsulfonyl)-1H-indole]", "cytotoxicity at the IC95 concentration": "no cytotoxicity"}, {"compound": "O=S(=O)(c1ccccc1)c1c(-c2noc(C3CCC3)n2)[nH]c2ccc(Cl)cc12", "note": "[Example 13, 5-chloro-2-(5-cyclobutyl-1,2,4-oxadiazol-3-yl)-3-(phenylsulfonyl)-1H-indole]", "cytotoxicity at the IC95 concentration": "no cytotoxicity"}, {"compound": "O=S(=O)(c1c(-c2nc(-c3ccc(O)cc3)c[nH]2)[nH]c2ccc(Br)cc12)N1CCCC1", "note": "[Example 27, 4-{2-[5-bromo-3-(pyrrolidin-1-ylsulfonyl)-1H-indol-2-yl]-1H-imidazol-4-yl}phenol]", "cytotoxicity at the IC95 concentration": "no cytotoxicity"}, {"compound": "O=S(=O)(c1c(-c2nc(-c3ccc(F)cc3)c[nH]2)[nH]c2ccc(Br)cc12)N1CCCC1", "note": "[Example 25, 5-bromo-2-[4-(4-fluorophenyl)-1H-imidazol-2-yl]-3-(pyrrolidin-1-ylsulfonyl)-1H-indole]", "cytotoxicity at the IC95 concentration": "no cytotoxicity"}, {"compound": "O=S(=O)(c1c(-c2nc(-c3ccc(Cl)cc3)c[nH]2)[nH]c2ccc(Br)cc12)N1CCCC1", "note": "[Example 24, 5-bromo-2-[4-(4-chlorophenyl)-1H-imidazol-2-yl]-3-(pyrrolidin-1-ylsulfonyl)-1H-indole]", "cytotoxicity at the IC95 concentration": "no cytotoxicity"}, {"compound": "O=S(=O)(c1c(-c2nc3ccccc3[nH]2)[nH]c2ccc(Br)cc12)N1CCCC1", "note": "[Example 17, 2-[5-bromo-3-(pyrrolidin-1-ylsulfonyl)-1H-indol-2-yl]-1H-benzimidazole]", "cytotoxicity at the IC95 concentration": "no cytotoxicity"}, {"compound": "O=S(=O)(c1ccccc1)c1c(-c2noc(Cc3ccccc3)n2)[nH]c2ccc(Cl)cc12", "note": "[Example 14, 2-(5-benzyl-1,2,4-oxadiazol-3-yl)-5-chloro-3-(phenylsulfonyl)-1H-indole]", "cytotoxicity at the IC95 concentration": "no cytotoxicity"}, {"compound": "CCc1nc(-c2[nH]c3ccc(Cl)cc3c2S(=O)(=O)c2ccccc2)no1", "note": "[Example 15, 5-chloro-2-(5-ethyl-1,2,4-oxadiazol-3-yl)-3-(phenylsulfonyl)-1H-indole]", "cytotoxicity at the IC95 concentration": "no cytotoxicity"}]}]}
